Reference: the supplement of paper PMC10849652
This is one part of the list.

The chains behind the UniProt entries cited, without tags or fusion partners. Where a name states a change or a piece, a line headed by the entry shows the natural chain unless it says otherwise.
UniProt O95816: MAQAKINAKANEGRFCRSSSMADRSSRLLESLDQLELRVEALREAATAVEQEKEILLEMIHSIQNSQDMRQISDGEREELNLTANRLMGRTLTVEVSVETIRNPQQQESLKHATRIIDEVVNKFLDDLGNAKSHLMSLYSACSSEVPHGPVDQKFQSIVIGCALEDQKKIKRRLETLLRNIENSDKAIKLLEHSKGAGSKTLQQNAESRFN
UniProt Q9UHR4: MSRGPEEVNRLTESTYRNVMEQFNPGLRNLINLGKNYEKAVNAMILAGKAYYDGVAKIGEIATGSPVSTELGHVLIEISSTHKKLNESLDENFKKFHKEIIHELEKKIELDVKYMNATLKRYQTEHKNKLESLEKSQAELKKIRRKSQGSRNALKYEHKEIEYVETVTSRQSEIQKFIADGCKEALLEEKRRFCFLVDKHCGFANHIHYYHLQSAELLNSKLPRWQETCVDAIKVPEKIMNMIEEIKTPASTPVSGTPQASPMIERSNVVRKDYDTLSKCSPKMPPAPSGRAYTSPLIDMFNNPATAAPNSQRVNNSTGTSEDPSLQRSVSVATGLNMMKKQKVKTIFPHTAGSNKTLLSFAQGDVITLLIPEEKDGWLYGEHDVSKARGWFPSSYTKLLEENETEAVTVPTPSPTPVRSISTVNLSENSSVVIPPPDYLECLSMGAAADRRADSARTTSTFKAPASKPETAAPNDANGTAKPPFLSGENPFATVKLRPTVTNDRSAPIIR
UniProt Q9NXR7, whole entry, looked up: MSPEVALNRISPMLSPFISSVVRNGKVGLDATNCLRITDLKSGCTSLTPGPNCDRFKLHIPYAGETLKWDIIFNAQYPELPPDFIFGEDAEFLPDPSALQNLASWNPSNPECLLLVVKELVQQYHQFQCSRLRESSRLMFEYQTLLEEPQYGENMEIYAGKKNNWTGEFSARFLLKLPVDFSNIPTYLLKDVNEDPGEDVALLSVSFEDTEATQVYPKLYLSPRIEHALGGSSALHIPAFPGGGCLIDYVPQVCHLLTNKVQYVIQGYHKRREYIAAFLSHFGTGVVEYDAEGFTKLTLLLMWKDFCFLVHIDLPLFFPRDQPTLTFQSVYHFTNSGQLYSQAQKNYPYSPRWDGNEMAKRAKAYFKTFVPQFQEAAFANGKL
UniProt Q92994: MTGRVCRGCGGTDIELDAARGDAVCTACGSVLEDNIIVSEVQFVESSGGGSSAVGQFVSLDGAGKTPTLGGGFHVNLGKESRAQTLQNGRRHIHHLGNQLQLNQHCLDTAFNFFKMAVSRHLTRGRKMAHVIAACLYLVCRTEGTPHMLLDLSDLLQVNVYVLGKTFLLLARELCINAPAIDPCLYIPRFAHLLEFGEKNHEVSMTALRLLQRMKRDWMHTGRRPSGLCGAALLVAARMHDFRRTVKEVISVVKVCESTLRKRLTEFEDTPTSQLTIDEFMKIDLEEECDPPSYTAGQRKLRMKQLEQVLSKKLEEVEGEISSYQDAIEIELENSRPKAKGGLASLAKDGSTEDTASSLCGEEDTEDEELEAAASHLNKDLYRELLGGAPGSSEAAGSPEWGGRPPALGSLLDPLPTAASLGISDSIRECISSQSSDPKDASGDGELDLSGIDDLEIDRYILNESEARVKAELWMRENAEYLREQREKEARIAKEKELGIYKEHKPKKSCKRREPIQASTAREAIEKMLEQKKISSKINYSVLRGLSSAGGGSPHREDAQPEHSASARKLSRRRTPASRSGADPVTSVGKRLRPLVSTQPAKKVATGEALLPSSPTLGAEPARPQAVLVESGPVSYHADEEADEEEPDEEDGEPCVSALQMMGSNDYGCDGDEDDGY
UniProt Q06187: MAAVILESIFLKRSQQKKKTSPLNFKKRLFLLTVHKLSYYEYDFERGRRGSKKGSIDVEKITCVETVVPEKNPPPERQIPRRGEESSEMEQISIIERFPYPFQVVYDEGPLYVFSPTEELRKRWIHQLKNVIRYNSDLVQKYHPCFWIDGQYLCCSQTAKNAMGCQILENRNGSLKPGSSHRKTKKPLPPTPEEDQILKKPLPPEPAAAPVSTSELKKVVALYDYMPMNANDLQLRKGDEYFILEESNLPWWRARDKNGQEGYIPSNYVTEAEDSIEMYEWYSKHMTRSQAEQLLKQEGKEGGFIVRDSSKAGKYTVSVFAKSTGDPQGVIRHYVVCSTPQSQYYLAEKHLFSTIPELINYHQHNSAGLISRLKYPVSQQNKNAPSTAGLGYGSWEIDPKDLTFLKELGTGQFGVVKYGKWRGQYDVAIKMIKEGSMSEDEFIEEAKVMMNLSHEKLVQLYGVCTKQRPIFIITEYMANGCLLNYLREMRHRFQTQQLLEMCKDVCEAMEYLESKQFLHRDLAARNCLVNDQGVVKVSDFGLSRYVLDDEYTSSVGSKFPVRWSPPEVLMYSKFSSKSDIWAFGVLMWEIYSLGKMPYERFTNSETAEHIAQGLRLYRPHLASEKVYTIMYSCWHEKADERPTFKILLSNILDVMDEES
UniProt Q8IXM2, whole entry, looked up: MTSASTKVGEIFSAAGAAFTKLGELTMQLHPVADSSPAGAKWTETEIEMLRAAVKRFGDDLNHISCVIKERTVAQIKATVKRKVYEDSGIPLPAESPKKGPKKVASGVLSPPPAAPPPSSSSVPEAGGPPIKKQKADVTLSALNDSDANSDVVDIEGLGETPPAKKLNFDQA
UniProt Q9BXY8: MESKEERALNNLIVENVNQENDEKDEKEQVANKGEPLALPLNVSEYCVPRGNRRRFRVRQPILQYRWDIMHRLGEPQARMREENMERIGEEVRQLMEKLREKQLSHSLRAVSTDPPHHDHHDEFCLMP
UniProt Q96G97: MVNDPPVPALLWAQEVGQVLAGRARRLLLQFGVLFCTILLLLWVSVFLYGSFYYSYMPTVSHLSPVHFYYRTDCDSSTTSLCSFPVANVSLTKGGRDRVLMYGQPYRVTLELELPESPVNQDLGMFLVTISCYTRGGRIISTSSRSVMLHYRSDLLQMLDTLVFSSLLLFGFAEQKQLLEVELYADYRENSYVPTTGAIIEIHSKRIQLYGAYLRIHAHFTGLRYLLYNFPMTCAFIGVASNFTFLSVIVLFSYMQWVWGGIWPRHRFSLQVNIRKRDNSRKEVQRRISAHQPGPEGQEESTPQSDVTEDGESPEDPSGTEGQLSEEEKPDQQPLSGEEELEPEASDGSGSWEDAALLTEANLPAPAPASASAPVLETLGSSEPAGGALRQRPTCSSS
UniProt Q9P281: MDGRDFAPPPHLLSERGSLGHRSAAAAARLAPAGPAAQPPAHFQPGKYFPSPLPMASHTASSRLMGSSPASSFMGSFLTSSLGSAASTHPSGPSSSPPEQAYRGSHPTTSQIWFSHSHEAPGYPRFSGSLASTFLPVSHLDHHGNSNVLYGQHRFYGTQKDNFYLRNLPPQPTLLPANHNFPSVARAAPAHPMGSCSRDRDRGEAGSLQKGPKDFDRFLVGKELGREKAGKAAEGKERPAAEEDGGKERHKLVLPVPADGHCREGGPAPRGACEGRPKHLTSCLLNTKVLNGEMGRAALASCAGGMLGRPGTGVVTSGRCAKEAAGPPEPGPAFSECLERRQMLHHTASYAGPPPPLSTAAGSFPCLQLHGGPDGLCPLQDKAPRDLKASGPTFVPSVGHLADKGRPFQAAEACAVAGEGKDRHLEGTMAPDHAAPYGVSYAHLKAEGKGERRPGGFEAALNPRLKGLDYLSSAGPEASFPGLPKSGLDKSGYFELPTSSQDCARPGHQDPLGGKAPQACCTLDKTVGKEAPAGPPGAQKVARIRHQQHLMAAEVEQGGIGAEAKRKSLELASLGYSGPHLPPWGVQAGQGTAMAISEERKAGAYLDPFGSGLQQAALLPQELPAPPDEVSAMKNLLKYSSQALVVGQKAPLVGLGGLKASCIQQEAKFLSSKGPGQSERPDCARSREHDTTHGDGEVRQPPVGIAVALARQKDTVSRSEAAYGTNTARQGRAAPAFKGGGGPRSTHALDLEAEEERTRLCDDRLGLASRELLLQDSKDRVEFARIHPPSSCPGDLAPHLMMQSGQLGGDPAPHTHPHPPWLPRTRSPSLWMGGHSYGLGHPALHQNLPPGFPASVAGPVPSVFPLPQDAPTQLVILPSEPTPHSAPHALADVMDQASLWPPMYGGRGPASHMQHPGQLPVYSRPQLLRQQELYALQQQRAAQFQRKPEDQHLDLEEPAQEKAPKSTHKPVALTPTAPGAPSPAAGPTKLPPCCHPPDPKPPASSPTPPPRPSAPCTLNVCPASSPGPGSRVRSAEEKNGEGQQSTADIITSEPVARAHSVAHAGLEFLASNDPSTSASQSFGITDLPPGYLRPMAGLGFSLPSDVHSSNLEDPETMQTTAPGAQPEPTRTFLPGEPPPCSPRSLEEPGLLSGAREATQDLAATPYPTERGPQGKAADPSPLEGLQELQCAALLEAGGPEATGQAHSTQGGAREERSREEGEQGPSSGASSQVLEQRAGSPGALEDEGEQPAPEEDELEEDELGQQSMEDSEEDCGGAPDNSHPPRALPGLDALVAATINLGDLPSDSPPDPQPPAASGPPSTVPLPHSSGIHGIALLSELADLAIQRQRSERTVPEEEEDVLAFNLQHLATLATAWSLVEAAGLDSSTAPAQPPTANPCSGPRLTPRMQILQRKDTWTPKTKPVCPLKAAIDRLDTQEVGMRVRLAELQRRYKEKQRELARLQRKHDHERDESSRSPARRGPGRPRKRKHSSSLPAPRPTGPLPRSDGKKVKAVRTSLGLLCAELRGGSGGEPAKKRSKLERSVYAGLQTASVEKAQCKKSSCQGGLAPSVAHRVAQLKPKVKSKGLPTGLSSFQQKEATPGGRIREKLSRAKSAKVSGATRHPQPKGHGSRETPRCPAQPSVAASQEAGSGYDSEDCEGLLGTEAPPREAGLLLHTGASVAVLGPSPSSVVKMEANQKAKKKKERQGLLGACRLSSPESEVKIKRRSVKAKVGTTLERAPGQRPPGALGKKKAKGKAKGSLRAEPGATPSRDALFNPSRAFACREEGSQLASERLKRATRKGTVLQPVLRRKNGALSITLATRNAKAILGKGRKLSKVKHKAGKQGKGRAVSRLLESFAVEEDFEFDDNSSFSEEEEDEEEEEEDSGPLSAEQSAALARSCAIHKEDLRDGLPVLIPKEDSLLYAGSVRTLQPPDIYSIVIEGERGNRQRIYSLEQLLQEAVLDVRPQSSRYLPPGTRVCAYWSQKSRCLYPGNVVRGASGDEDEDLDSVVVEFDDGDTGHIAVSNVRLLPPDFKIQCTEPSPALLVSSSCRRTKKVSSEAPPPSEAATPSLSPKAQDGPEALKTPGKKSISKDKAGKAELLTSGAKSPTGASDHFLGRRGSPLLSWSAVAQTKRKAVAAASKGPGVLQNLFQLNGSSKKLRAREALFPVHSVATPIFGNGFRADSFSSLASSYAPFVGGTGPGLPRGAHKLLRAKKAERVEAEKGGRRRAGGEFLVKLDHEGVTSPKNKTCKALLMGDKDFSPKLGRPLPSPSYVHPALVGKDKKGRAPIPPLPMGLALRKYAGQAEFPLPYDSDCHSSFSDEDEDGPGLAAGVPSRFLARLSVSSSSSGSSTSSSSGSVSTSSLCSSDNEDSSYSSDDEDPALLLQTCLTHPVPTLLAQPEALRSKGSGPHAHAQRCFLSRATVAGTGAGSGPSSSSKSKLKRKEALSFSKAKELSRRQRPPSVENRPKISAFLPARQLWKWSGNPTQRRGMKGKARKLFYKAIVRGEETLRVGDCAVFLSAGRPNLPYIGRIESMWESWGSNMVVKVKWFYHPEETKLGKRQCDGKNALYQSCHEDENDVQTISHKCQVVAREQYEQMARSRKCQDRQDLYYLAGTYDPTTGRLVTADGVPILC
UniProt O00499: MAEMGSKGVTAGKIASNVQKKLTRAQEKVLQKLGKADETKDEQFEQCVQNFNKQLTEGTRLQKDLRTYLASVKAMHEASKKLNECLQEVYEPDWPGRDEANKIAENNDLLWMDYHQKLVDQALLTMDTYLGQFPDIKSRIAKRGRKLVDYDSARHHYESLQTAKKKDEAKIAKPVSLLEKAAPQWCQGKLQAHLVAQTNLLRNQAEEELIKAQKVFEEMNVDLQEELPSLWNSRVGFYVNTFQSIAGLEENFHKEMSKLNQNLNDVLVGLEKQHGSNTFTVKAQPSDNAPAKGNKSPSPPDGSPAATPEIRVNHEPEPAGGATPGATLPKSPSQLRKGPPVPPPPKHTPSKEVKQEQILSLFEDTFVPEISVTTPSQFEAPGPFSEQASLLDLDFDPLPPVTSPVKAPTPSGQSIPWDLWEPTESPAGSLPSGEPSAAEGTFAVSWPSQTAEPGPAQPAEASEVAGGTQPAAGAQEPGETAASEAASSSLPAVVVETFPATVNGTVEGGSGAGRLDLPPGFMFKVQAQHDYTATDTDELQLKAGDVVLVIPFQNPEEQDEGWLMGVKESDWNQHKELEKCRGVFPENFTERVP
UniProt Q92934: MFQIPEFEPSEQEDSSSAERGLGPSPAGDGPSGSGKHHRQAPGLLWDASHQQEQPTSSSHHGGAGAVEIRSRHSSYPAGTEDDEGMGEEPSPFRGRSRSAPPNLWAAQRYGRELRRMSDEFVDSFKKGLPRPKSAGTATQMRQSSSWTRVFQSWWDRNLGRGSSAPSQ

Key:
Assay in all cases: log2 fold change, soluble protein after heating vs DMSO (PISA); higher = thermal stabilisation; K562 lysate, 10 uM; active = over 0.2 and 3.5 SD of the protein, either way, in both replicates (recomputed)
[1] = compound: CS(=O)(=O)CCNCc1ccc(-c2ccc3ncnc(Nc4ccc(OCc5cccc(F)c5)c(Cl)c4)c3c2)o1 [lapatinib]
Procedure, shortened: (§1)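 Log-two fold change in thermal stability relative to solvent controls is reported from duplicates. For each sample, crude K562 extract from dounce-homogenised pellets in PBS pH 7.4 with 1 mM MgCl2, at 1 mg/mL protein, was treated with 10 μM compound for 30 min. Aliquots heated for 3 min across 48°C-58°C were pooled, brought to 0.5% NP-40 at 4°C and cleared at 21,000xg for 90 min. The supernatant was quantified by TMTpro 16plex LC-MS/MS with channel sums equalised.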

[2] = compound: CS(=O)(=O)N1CCN(Cc2cc3nc(-c4cccc5[nH]ncc45)nc(N4CCOCC4)c3s2)CC1 [pictilisib]
Procedure, shortened: as §1

[3] = compound: C[C@@H](Oc1cc(-c2cnn(C3CCNCC3)c2)cnc1N)c1c(Cl)ccc(F)c1Cl [crizotinib]
Procedure, shortened: as §1

[4] = compound: C[C@H](C1=CC=C(C=C1)C(=O)NC2=C3C=CNC3=NC=C2)N
Procedure, shortened: as §1

[5] = compound: C[C@H](Nc1ncnc2nc[nH]c12)c1cc2cccc(Cl)c2c(=O)n1-c1ccccc1 [duvelisib]
Procedure, shortened: as §1

[6] = compound: Cc1cc(Nc2cc(CN3CCOCC3)c3nc(C)c(Cc4ccc(Cl)cc4F)n3n2)n[nH]1 [gandotinib]
Procedure, shortened: as §1

[7] = compound: Cc1cc(Nc2cc(N3CCN(C)CC3)nc(Sc3ccc(NC(=O)C4CC4)cc3)n2)n[nH]1 [tozasertib]
Procedure, shortened: as §1

[8] = compound: Cc1ccc(-n2nc(C(C)(C)C)cc2NC(=O)Nc2ccc(OCCN3CCOCC3)c3ccccc23)cc1 [doramapimod]
Procedure, shortened: as §1

[9] = compound: Cc1ccc(NC(=O)c2ccc(CN3CC[C@H](N(C)C)C3)c(C(F)(F)F)c2)cc1Nc1nccc(-c2cncnc2)n1 [bafetinib]
Procedure, shortened: as §1

[10] = compound: Cc1cccc(CC(=O)N2CCc3c2ccc(-c2cn(C)c4ncnc(N)c24)c3F)n1
Procedure, shortened: as §1

Measured: log2 fold change

BAG2 (UniProt O95816)
inactive: [1] 0.003 | [2] 0.017 | [3] 0.029 | [4] 0.067 | [5] 0.035 | [6] -0.022 | [7] 0 | [8] 0 | [9] -0.017 | [10] -0.008

BORCS6 (UniProt Q96GS4)
inactive: [1] 0.014 | [2] 0.043 | [3] 0.008 | [4] -0.037 | [5] 0.096 | [6] -0.011 | [7] 0.075 | [8] -0.012 | [9] -0.076 | [10] 0.012

BLOC1S1 (UniProt P78537)
inactive: [1] 0.024 | [2] 0.033 | [3] 0.016 | [4] -0.008 | [5] 0.018 | [6] -0.035 | [7] 0.088 | [8] 0.033 | [9] -0.119 | [10] -0.03

BRAP (UniProt Q7Z569)
inactive: [1] -0.008 | [2] 0.001 | [3] 0.007 | [4] -0.032 | [5] -0.044 | [6] 0.035 | [7] -0.014 | [8] 0.023 | [9] -0.011 | [10] 0.041

BAIAP2L1 (UniProt Q9UHR4)
inactive: [1] 0.017 | [2] -0.022 | [3] 0.017 | [4] 0.023 | [5] -0.003 | [6] 0.008 | [7] 0 | [8] 0.01 | [9] 0.057 | [10] -0.006

BPTF (UniProt Q12830)
inactive: [1] 0.017 | [2] 0.027 | [3] -0.028 | [4] -0.049 | [5] -0.004 | [6] -0.015 | [7] 0.064 | [8] -0.003 | [9] -0.004 | [10] 0.064

BCKDK (UniProt O14874)
inactive: [1] -0.056 | [2] -0.028 | [3] 0.096 | [4] -0.038 | [5] -0.008 | [6] -0.095 | [7] -0.039 | [8] -0.033 | [9] 0.012 | [10] -0.003

BOP1 (UniProt Q14137)
inactive: [1] -0.002 | [2] -0.003 | [3] -0.017 | [4] 0.001 | [5] -0.002 | [6] -0.03 | [7] 0.021 | [8] 0.016 | [9] -0.019 | [10] 0.015

BPNT1 (UniProt O95861)
inactive: [1] 0.003 | [2] -0.012 | [3] 0.004 | [4] -0.006 | [5] 0.004 | [6] 0.001 | [7] 0.017 | [8] 0.029 | [9] 0.049 | [10] -0.037

BABAM2 (UniProt Q9NXR7)
inactive: [1] 0.007 | [2] -0.047 | [3] 0.006 | [4] -0.088 | [5] -0.022 | [6] 0.031 | [7] 0.006 | [8] -0.049 | [9] 0.026 | [10] 0.03

BSG (UniProt P35613)
inactive: [1] -0.002 | [2] 0.014 | [3] 0.028 | [4] 0.016 | [5] 0.044 | [6] -0.049 | [7] 0.028 | [8] 0.037 | [9] 0.061 | [10] -0.12

BBC3 (UniProt Q9BXH1)
inactive: [1] -0.047 | [2] -0.022 | [3] -0.004 | [4] 0.146 | [5] 0.15 | [6] 0.01 | [7] 0.118 | [8] 0.053 | [9] -0.036 | [10] 0.039

BRF1 (UniProt Q92994)
inactive: [2] -0.038 | [3] -0.062 | [4] -0.036 | [5] 0.079 | [6] -0.216 | [7] -0.034 | [8] 0.087 | [9] -0.02 | [10] 0.019

BAZ1A (UniProt Q9NRL2)
inactive: [2] 0.04 | [3] -0.103 | [4] -0.068 | [5] 0.04 | [6] 0.026 | [7] 0.087 | [8] -0.001 | [9] -0.031 | [10] -0.026

BTK isoform 2 (UniProt Q06187)
inactive: [1] -0.015 | [2] -0.041 | [4] -0.148 | [5] 0.018 | [6] 0.101 | [7] -0.012 | [8] 0.031 | [9] -0.043 | [10] 0.178

BAP18 isoform 3 (UniProt Q8IXM2)
inactive: [1] 0.056 | [4] -0.001 | [6] -0.059 | [7] -0.047 | [10] -0.059

BCAS1 isoform 2 (UniProt O75363)
inactive: [1] 0.051 | [2] 0.004 | [3] -0.041 | [4] 0.064 | [6] 0.067 | [7] 0.06 | [8] 0.028 | [9] -0.029 | [10] -0.03

2 consecutive entries out of the list so far, quoted:
BAZ1A (UniProt Q9NRL2)
inactive: [2] 0.04 | [3] -0.103 | [4] -0.068 | [5] 0.04 | [6] 0.026 | [7] 0.087 | [8] -0.001 | [9] -0.031 | [10] -0.026

BTK isoform 2 (UniProt Q06187)
inactive: [1] -0.015 | [2] -0.041 | [4] -0.148 | [5] 0.018 | [6] 0.101 | [7] -0.012 | [8] 0.031 | [9] -0.043 | [10] 0.178

Additional results follow.

BORCS7 (UniProt Q96B45)
inactive: [1] -0.008 | [2] 0.072 | [3] -0.038 | [4] 0.159 | [6] 0.142 | [8] -0.064 | [9] 0.015 | [10] -0.08

BAK1 (UniProt Q16611)
inactive: [1] -0.013 | [3] 0.088 | [4] 0.115 | [5] 0.053 | [6] -0.028 | [7] -0.135 | [8] -0.252 | [10] -0.019

BEX2 isoform 2 (UniProt Q9BXY8)
inactive: [1] -0.015 | [4] -0.181 | [6] 0.045 | [10] 0.085

BRI3BP (UniProt Q8WY22)
inactive: [1] -0.023 | [2] 0.009 | [4] -0.005 | [5] 0.103 | [6] 0.037 | [7] 0.139 | [9] -0.049 | [10] 0.026

BRCA2 (UniProt P51587)
inactive: [2] 0.064 | [3] 0 | [4] -0.191 | [5] 0.11 | [6] 0.078 | [7] 0.05 | [8] -0.034 | [9] 0.035 | [10] 0.201

BSCL2 isoform 4 (UniProt Q96G97)
inactive: [1] -0.19 | [3] -0.018 | [4] -0.052 | [6] 0.005 | [8] -0.022 | [10] 0.274

BRD7 isoform 2 (UniProt Q9NPI1)
inactive: [1] 0.068 | [2] -0.08 | [3] -0.025 | [4] 0.132 | [5] 0.025 | [6] -0.18 | [8] -0.133 | [9] -0.004 | [10] -0.055

BOD1 (UniProt Q96IK1)
inactive: [1] -0.081 | [3] -0.045 | [4] 0.073 | [5] 0.396 | [6] -0.125 | [8] 0.014 | [10] 0.06

BCL9L (UniProt Q86UU0)
inactive: [1] -0.014 | [2] -0.093 | [3] 0.069 | [4] -0.072 | [5] 0.011 | [6] 0.016 | [8] 0.05 | [9] -0.059 | [10] 0.035

BNIP2 (UniProt H7C096)
inactive: [1] -0.014 | [2] -0.013 | [4] 0.005 | [6] -0.057 | [7] -0.008 | [9] -0.073 | [10] 0.123

BAHCC1 (UniProt Q9P281)
inactive: [1] -0.117 | [3] -0.191 | [5] 0.002 | [6] 0.006 | [7] 0.052 | [8] 0.137 | [10] 0.234
active: [4] -0.956

BIN1 (UniProt O00499)
inactive: [1] -0.106 | [4] -0.093 | [6] 0.122 | [7] -0.137 | [10] 0.092

BAHD1 (UniProt Q8TBE0)
inactive: [2] 0.084 | [3] 0.026 | [4] -0.004 | [5] 0.16 | [6] 0.023 | [8] 0.054 | [9] -0.02 | [10] 0.014

BAD (UniProt Q92934)
inactive: [2] 0.153 | [3] -0.089 | [4] -0.107 | [5] 0.135 | [6] 0.055 | [7] 0.097 | [8] 0.032 | [9] -0.002 | [10] 0.04

BIRC6, A0A3B3IUB9
inactive: [1] 0.149 | [3] -0.007 | [4] 0.036 | [5] -0.224 | [6] -0.077 | [7] -0.163 | [8] 0.102 | [10] -0.058
